Data: the supplement of paper PMC9233669
Variants at the background level are over-represented here.

Tests used:
biotinyl-Trp-oxazolone = experiment: self-aminoacylation, catalytic enhancement (BWO) (fold over background); higher = more active; k-Seq, kA / k0A0; sequences stand for … in GGGAAUGGAUCCACAUCUACGAAUUC…UUCACUGCAGACUUGACGAAGCUG
In short: (§1)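 Catalytic enhancement equals the median kA over the uncatalyzed rate, the latter read from the low-activity peak of a bimodal Gaussian fit. Values of kA came from fitting each sequence's fraction reacted to a pseudo-first-order model, with 1000 bootstraps. Reacted RNA was captured with streptavidin and quantified by triplicate qPCR and Illumina sequencing after 90 minutes at room temperature with 2–1250 μM biotinyl-aminoacyl-oxazolone and 0.43 μM mutagenized RNA pools bearing a 21-nt variable region.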

biotinyl-Leu-oxazolone = experiment: self-aminoacylation, catalytic enhancement (BLO) (fold over background); higher = more active; k-Seq, kA / k0A0; sequences stand for … in GGGAAUGGAUCCACAUCUACGAAUUC…UUCACUGCAGACUUGACGAAGCUG
In short: as §1

biotinyl-Val-oxazolone = experiment: self-aminoacylation, catalytic enhancement (BVO) (fold over background); higher = more active; k-Seq, kA / k0A0; sequences stand for … in GGGAAUGGAUCCACAUCUACGAAUUC…UUCACUGCAGACUUGACGAAGCUG
In short: as §1

biotinyl-Ile-oxazolone = experiment: self-aminoacylation, catalytic enhancement (BIO) (fold over background); higher = more active; k-Seq, kA / k0A0; sequences stand for … in GGGAAUGGAUCCACAUCUACGAAUUC…UUCACUGCAGACUUGACGAAGCUG
In short: as §1

biotinyl-Met-oxazolone = experiment: self-aminoacylation, catalytic enhancement (BMO) (fold over background); higher = more active; k-Seq, kA / k0A0; sequences stand for … in GGGAAUGGAUCCACAUCUACGAAUUC…UUCACUGCAGACUUGACGAAGCUG
In short: as §1

biotinyl-Phe-oxazolone = experiment: self-aminoacylation, catalytic enhancement (BFO) (fold over background); higher = more active; k-Seq, kA / k0A0; sequences stand for … in GGGAAUGGAUCCACAUCUACGAAUUC…UUCACUGCAGACUUGACGAAGCUG
In short: as §1

Sequence | self-aminoacylation (biotinyl-Trp-oxazolone) | self-aminoacylation (biotinyl-Leu-oxazolone) | self-aminoacylation (biotinyl-Val-oxazolone) | self-aminoacylation (biotinyl-Ile-oxazolone) | self-aminoacylation (biotinyl-Met-oxazolone) | self-aminoacylation (biotinyl-Phe-oxazolone)
CCAAAUUUCAAGCAAUCGGUC [Fam1B.1 aminoacylation ribozyme variant] | 1.06 | 1.08 | 1.28 | 1.25 | 1.14 | 1.34
CCACAAUUCAAGCAAUCGUUC [Fam1B.1 aminoacylation ribozyme variant] | 0.719 | 0.713 | 0.864 | 0.909 | 0.815 | 1.06
CCACAAUUCAGGCAAUCGGUC [Fam1B.1 aminoacylation ribozyme variant] | 0.94 | 1.46 | 1.42 | 1.47 | 1.37 | 1.29
CCACACACCAAGCAAUCGGUC [Fam1B.1 aminoacylation ribozyme variant] | 0.657 | 1.1 | 1.65 | 1.34 | 0.882 | 1.09
CCACACAUCAAGCAAUCGGUC [Fam1B.1 aminoacylation ribozyme variant] | 0.764 | 0.669 | 0.933 | 0.82 | 0.673 | 1.22
CCACACAUCAAGCAAUCGGUU [Fam1B.1 aminoacylation ribozyme variant] | 0.785 | 1.23 | 1.59 | 1.7 | 0.885 | 0.745
CCACACAUCAAGCAAUCUGUC [Fam1B.1 aminoacylation ribozyme variant] | 0.265 | 0.411 | 0.682 | 0.521 | 0.446 | 0.973
CCACACAUGAAGCAAUCGGUC [Fam1B.1 aminoacylation ribozyme variant] | 0.778 | 0.754 | 0.957 | 0.83 | 0.614 | 0.955
CCACACCUCAAGAAAUCGGUC [Fam1B.1 aminoacylation ribozyme variant] | 1.29 | 1.19 | 1.03 | 1.03 | 0.899 | 1.7
CCACACCUCAAGCAACCGGUC [Fam1B.1 aminoacylation ribozyme variant] | 1.41 | 1.38 | 1.82 | 1.45 | 1.12 | 0.96
CCACACCUGAAGCAAUCGGUC [Fam1B.1 aminoacylation ribozyme variant] | 0.911 | 0.946 | 1.18 | 1.01 | 0.903 | 0.952
CCACACGGCAAGCAAUCGGUC [Fam1B.1 aminoacylation ribozyme variant] | 1.16 | 0.971 | 1.55 | 1 | 0.987 | 0.671
CCACACGUCAAGCAAUCAGUC [Fam1B.1 aminoacylation ribozyme variant] | 0.482 | 0.713 | 0.88 | 0.647 | 0.665 | 0.738
CCACACGUCAAGCAAUUGGUC [Fam1B.1 aminoacylation ribozyme variant] | 1.05 | 0.951 | 1.07 | 0.961 | 0.989 | 0.752
CCACACUACAAGCAAGCGGUC [Fam1B.1 aminoacylation ribozyme variant] | 0.517 | 0.88 | 1.08 | 1.16 | 0.617 | 1.08
CCACACUACAAGCAAUCCGUC [Fam1B.1 aminoacylation ribozyme variant] | 0.521 | 0.903 | 0.96 | 1.15 | 0.803 | 0.81
CCACACUACAAGCAAUCGGUA [Fam1B.1 aminoacylation ribozyme variant] | 1.5 | 0.81 | 0.88 | 0.825 | 0.696 | 0.854
CCACACUACAAGCAAUCUGUC [Fam1B.1 aminoacylation ribozyme variant] | 0.353 | 0.49 | 0.566 | 0.496 | 0.271 | 0.747
CCACACUACAAGCUAUCGGUC [Fam1B.1 aminoacylation ribozyme variant] | 0.608 | 0.768 | 0.954 | 0.862 | 0.737 | 0.901
CCACACUACAAUCAAUCGGUC [Fam1B.1 aminoacylation ribozyme variant] | 0.811 | 0.688 | 0.877 | 0.797 | 0.663 | 1.18
CCACACUCAAAGCAAUCGGUC [Fam1B.1 aminoacylation ribozyme variant] | 1.04 | 0.706 | 1 | 1.14 | 0.868 | 0.917
CCACACUCCAAGCAAUCGAUC [Fam1B.1 aminoacylation ribozyme variant] | 0.365 | 0.575 | 0.843 | 0.788 | 0.495 | 1.27
CCACACUCCAAGCAAUCUGUC [Fam1B.1 aminoacylation ribozyme variant] | 0.384 | 0.44 | 0.749 | 0.617 | 0.426 | 0.541
CCACACUUAAAGAAAUCGGUC [Fam1B.1 aminoacylation ribozyme variant] | 0.679 | 0.749 | 0.785 | 0.754 | 0.734 | 0.562
CCACACUUAAAGCAAUCGCUC [Fam1B.1 aminoacylation ribozyme variant] | 0.677 | 1.38 | 1.1 | 1.31 | 1.02 | 0.744
CCACACUUAAAGCAAUCGGUA [Fam1B.1 aminoacylation ribozyme variant] | 0.581 | 0.952 | 0.803 | 0.824 | 1.07 | 1.18
